Experimental data published in article PMC3121800.

Target: T1, 3xFLAG-CERT (human (by the printed RefSeq NM_031361.2; the paper says only 'mammalian genes')) (UniProt Q9Y5P4)
T1 sequence: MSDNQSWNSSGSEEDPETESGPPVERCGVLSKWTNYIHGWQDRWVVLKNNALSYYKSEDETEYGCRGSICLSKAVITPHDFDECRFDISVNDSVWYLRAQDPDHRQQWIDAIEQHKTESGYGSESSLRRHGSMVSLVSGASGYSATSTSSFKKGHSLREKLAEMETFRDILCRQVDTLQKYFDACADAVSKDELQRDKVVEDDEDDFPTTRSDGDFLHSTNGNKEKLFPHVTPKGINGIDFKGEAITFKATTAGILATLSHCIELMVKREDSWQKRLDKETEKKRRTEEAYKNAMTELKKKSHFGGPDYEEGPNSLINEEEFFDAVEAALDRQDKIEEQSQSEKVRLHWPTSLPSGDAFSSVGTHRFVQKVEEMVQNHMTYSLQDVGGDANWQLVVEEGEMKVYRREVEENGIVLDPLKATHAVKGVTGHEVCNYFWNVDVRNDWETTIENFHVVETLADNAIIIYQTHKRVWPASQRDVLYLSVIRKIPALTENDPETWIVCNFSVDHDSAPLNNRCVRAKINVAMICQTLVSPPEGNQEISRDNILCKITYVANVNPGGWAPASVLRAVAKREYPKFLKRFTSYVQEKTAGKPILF
Assay: affinity purification with mass spectrometry; lysates of HEK293 transfected with 3xFLAG-CERT (18 h) and infected with C. trachomatis (24 h); anti-FLAG M2 agarose beads; SDS-PAGE, silver stain; a ~15 kDa band present only in transfected/infected samples analysed by LC MS-MS

B1: C. trachomatis inclusion membrane protein IncD (from infecting bacteria) (protein, UniProt B0B9M3 1-146)
chain: MTKVYAHSIQQERVVDRIALLERCLDLSNSLPTAKRLAAVAVATILAIALLVVAGLLFSGVLCSPVSVVAASLFFGVGAFLLGGALVGGVLTTEAVTRERLHRSQTLMWNNLCCKTAEVEQKISTASANAKSNDKLENSVSKKGAS
With B1 the binding was “binds”.

These are yes or no findings as the source states them, for the method shown. In cells and extracts the contact can be indirect. Here binding means that the protein was enriched with, or labelled near, the bait; the list need not be complete. Tags and fused reporters may be left off the sequences shown.
